Measured values reported in ChEMBL document CHEMBL1687827, “Profiling the Aspergillus fumigatus proteome in response to caspofungin” (2011).
Further values from the same series stand in other lists.

How the values were obtained:
Assay type in all cases: functional
Aspergillus fumigatus [1] = test: Induction of change in cytosolic small ribosomal subunit protein S12 gene expression in drug-susceptible Aspergillus fumigatus KU80 delta-akuB at 0.12 ug/ml after 24 hrs in YPD medium by microarray analysis relative to control
Aspergillus fumigatus [2] = test: Induction of change in Ribosomal L18ae protein family protein level in iTRAQ114 labelled cell wall fraction of drug-susceptible Aspergillus fumigatus KU80 delta-akuB at 0.12 ug/ml after 24 hrs in YPD medium by MS (MS/MS) analysis relative to control
Aspergillus fumigatus [3] = test: Induction of change in 60S ribosomal protein L22, putative protein level in iTRAQ114 labelled cell wall fraction of drug-susceptible Aspergillus fumigatus KU80 delta-akuB at 0.12 ug/ml after 24 hrs in YPD medium by MS (MS/MS) analysis relative to control
Aspergillus fumigatus [4] = test: Induction of change in glycine-rich RNA-binding protein, putative protein level in iTRAQ-118 labelled cell wall fraction of drug-susceptible Aspergillus fumigatus KU80 delta-akuB at 0.12 ug/ml after 24 hrs in YPD medium by MS (MS/MS) analysis relative to control
Aspergillus fumigatus [5] = test: Induction of change in coenzyme A transferase PsecoA gene expression in drug-susceptible Aspergillus fumigatus KU80 delta-akuB at 0.12 ug/ml after 48 hrs in YPD medium by microarray analysis relative to control
Aspergillus fumigatus [6] = test: Induction of change in 60S ribosomal protein L22, putative protein level in iTRAQ114 labelled cell wall fraction of drug-resistant Aspergillus fumigatus EMFR-S678P at 0.12 ug/ml after 24 hrs in YPD medium by MS (MS/MS) analysis relative to control
Aspergillus fumigatus [7] = test: Induction of change in 40S ribosomal protein S6 protein level in iTRAQ114 labelled cell wall fraction of drug-susceptible Aspergillus fumigatus KU80 delta-akuB at 0.12 ug/ml after 24 hrs in YPD medium by MS (MS/MS) analysis relative to control
Aspergillus fumigatus [8] = test: Induction of change in C2H2 transcription factor (Seb1), putative, putative gene expression in drug-susceptible Aspergillus fumigatus KU80 delta-akuB at 0.12 ug/ml after 24 hrs in YPD medium by microarray analysis relative to control
Aspergillus fumigatus [9] = test: Induction of change in alanine aminotransferase, putative protein level in iTRAQ-116 labelled secreted fraction of drug-susceptible Aspergillus fumigatus KU80 delta-akuB at 0.12 ug/ml after 48 hrs in YPD medium by MS (MS/MS) analysis relative to control
Aspergillus fumigatus [10] = test: Induction of change in fructose-bisphosphate aldolase, class II protein level in iTRAQ-116 labelled secreted fraction of drug-susceptible Aspergillus fumigatus KU80 delta-akuB at 0.12 ug/ml after 48 hrs in YPD medium by MS (MS/MS) analysis relative to control
Aspergillus fumigatus [11] = test: Induction of change in ribosomal protein S8 protein level in iTRAQ114 labelled cell wall fraction of drug-susceptible Aspergillus fumigatus KU80 delta-akuB at 0.12 ug/ml after 24 hrs in YPD medium by MS (MS/MS) analysis relative to control
Aspergillus fumigatus [12] = test: Induction of change in ribosomal protein L16a protein level in iTRAQ114 labelled secreted fraction of drug-susceptible Aspergillus fumigatus KU80 delta-akuB at 0.12 ug/ml after 24 hrs in YPD medium by MS (MS/MS) analysis relative to control
Aspergillus fumigatus [13] = test: Induction of change in ribosomal protein S14.e gene expression in drug-susceptible Aspergillus fumigatus KU80 delta-akuB at 0.12 ug/ml after 24 hrs in YPD medium by microarray analysis relative to control
Aspergillus fumigatus [14] = test: Induction of change in 40s ribosomal protein s11 gene expression in drug-susceptible Aspergillus fumigatus KU80 delta-akuB at 0.12 ug/ml after 24 hrs in YPD medium by microarray analysis relative to control
Aspergillus fumigatus [15] = test: Induction of change in Ribosomal protein S13p/S18e protein level in iTRAQ114 labelled cell wall fraction of drug-resistant Aspergillus fumigatus EMFR-S678P at 0.12 ug/ml after 24 hrs in YPD medium by MS (MS/MS) analysis relative to control
Aspergillus fumigatus [16] = test: Induction of change in 60s ribosomal protein yl6 gene expression in drug-susceptible Aspergillus fumigatus KU80 delta-akuB at 0.12 ug/ml after 24 hrs in YPD medium by microarray analysis relative to control
Aspergillus fumigatus [17] = test: Induction of change in antigenic mitochondrial protein HSP60, putative protein level in iTRAQ114 labelled secreted fraction of drug-resistant Aspergillus fumigatus EMFR-S678P at 0.12 ug/ml after 24 hrs in YPD medium by MS (MS/MS) analysis relative to control
Aspergillus fumigatus [18] = test: Induction of change in carbonic anhydrase family gene expression in drug-susceptible Aspergillus fumigatus KU80 delta-akuB at 0.12 ug/ml after 48 hrs in YPD medium by microarray analysis relative to control
Aspergillus fumigatus [19] = test: Induction of change in NAD-dependent formate dehydrogenase gene expression in drug-susceptible Aspergillus fumigatus KU80 delta-akuB at 0.12 ug/ml after 48 hrs in YPD medium by microarray analysis relative to control
Aspergillus fumigatus [20] = test: Induction of change in plasma membrane H -ATPase protein level in iTRAQ-116 labelled cell wall fraction of drug-susceptible Aspergillus fumigatus KU80 delta-akuB at 0.12 ug/ml after 48 hrs in YPD medium by MS (MS/MS) analysis relative to control
Aspergillus fumigatus [21] = test: Induction of change in ribosomal protein S10 gene expression in drug-susceptible Aspergillus fumigatus KU80 delta-akuB at 0.12 ug/ml after 24 hrs in YPD medium by microarray analysis relative to control
Aspergillus fumigatus [22] = test: Induction of change in eukaryotic translation elongation factor 1 subunit Eef1-beta, putative protein level in iTRAQ-116 labelled secreted fraction of drug-susceptible Aspergillus fumigatus KU80 delta-akuB at 0.12 ug/ml after 48 hrs in YPD medium by MS (MS/MS) analysis relative to control
Aspergillus fumigatus [23] = test: Induction of change in antigenic mitochondrial protein HSP60, putative protein level in iTRAQ-116 labelled secreted fraction of drug-susceptible Aspergillus fumigatus KU80 delta-akuB at 0.12 ug/ml after 48 hrs in YPD medium by MS (MS/MS) analysis relative to control
Aspergillus fumigatus [24] = test: Induction of change in secreted dipeptidyl peptidase DppV protein level in iTRAQ121 labelled cell wall fraction of drug-susceptible Aspergillus fumigatus KU80 delta-akuB at 0.12 ug/ml after 48 hrs in YPD medium by MS (MS/MS) analysis relative to control
Aspergillus fumigatus [25] = test: Induction of change in hypothetical gene locus AFUA_5G07590 expression in drug-susceptible Aspergillus fumigatus KU80 delta-akuB at 0.12 ug/ml after 48 hrs in YPD medium by microarray analysis relative to control
Aspergillus fumigatus [26] = test: Induction of change in cytochrome b5, putative protein level in iTRAQ114 labelled secreted fraction of drug-susceptible Aspergillus fumigatus KU80 delta-akuB at 0.12 ug/ml after 24 hrs in YPD medium by MS (MS/MS) analysis relative to control

Compound: CC[C@H](C)C[C@H](C)CCCCCCCCC(=O)N[C@H]1C[C@@H](O)[C@@H](NCCN)NC(=O)[C@@H]2[C@@H](O)CCN2C(=O)[C@H]([C@H](O)CCN)NC(=O)[C@H]([C@H](O)[C@@H](O)c2ccc(O)cc2)NC(=O)[C@@H]2C[C@@H](O)CN2C(=O)[C@H]([C@@H](C)O)NC1=O [CASPOFUNGIN]
- fold change (FC) (Aspergillus fumigatus [1]): 4.9
- fold change (FC) (Aspergillus fumigatus [2]): 2.3
- fold change (FC) (Aspergillus fumigatus [3]): 2
- fold change (FC) (Aspergillus fumigatus [4]): -2.3
- fold change (FC) (Aspergillus fumigatus [5]): -4.4
- fold change (FC) (Aspergillus fumigatus [6]): 1.07
- fold change (FC) (Aspergillus fumigatus [7]): 2
- fold change (FC) (Aspergillus fumigatus [8]): -3.9
- fold change (FC) (Aspergillus fumigatus [9]): -6.5
- fold change (FC) (Aspergillus fumigatus [10]): 1.2
- fold change (FC) (Aspergillus fumigatus [11]): 1.2
- fold change (FC) (Aspergillus fumigatus [12]): 1.2
- fold change (FC) (Aspergillus fumigatus [13]): 3.7
- fold change (FC) (Aspergillus fumigatus [14]): 3.1
- fold change (FC) (Aspergillus fumigatus [15]): -1.23
- fold change (FC) (Aspergillus fumigatus [16]): 3.8
- fold change (FC) (Aspergillus fumigatus [17]): 1.15
- fold change (FC) (Aspergillus fumigatus [18]): -4.8
- fold change (FC) (Aspergillus fumigatus [19]): -3.6
- fold change (FC) (Aspergillus fumigatus [20]): -1.5
- fold change (FC) (Aspergillus fumigatus [21]): 7.8
- fold change (FC) (Aspergillus fumigatus [22]): -2.5
- fold change (FC) (Aspergillus fumigatus [23]): -2.6
- fold change (FC) (Aspergillus fumigatus [24]): -2.1
- fold change (FC) (Aspergillus fumigatus [25]): -2.8
- fold change (FC) (Aspergillus fumigatus [26]): -2
